Results on 41 compounds are retold here after PubChem BioAssay AID493014 (National Center for Advancing Translational Sciences (NCATS), 2011).

In general, AC50 refers to the concentration giving half of the maximal activity seen.

The test can be described thus: qHTS Assay to Find Inhibitors of Chronic Active B-Cell Receptor Signaling. Conditions: ABC-DLBCL IkBa-CBG/CBR reporter, luminescence ratio (green luciferase fused to IkBa over red control in TMD8 lymphoma cells), 4 h. Summed up: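 Compounds up to 46 uM were incubated four hours with TMD8 cells whose green CBG68 luciferase is fused to IkappaBalpha; red CBR luminescence normalised the signal, and concentration-effect curves were fitted to fusion, red and ratio data.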
(In qHTS, concentration-response curves come from the screen itself.)

The mark [1] stands for this setting: measured here: CBR red luminescence, cell number.
Setting [2] is: measured here: IkBa-CBG green luminescence.

This is one part of the list. Further columns of the screen follow, without active or inactive calls. Compounds called inactive in the main read-out are mostly missing here. Potencies come from curve fits of mixed quality, noted in brackets.

For the compound `COc1ccc(C(=O)c2c(C(F)(F)F)oc3c2C(=O)c2ccccc2C3=O)cc1OC`, the half-maximal activity concentration (AC50) under setting [1] is 0.146 µM [falling, full curve, poor fit].
Still for that read-out and setting: then `CCCCCCCCCC(=O)NNC(=O)c1c(O)c2ccccc2n(CCC)c1=O`, with 5.62 µM [falling, single point].
On the same count and under the same terms, then `Cc1ccccc1C(=O)NC(=S)Nc1cccc(NC(=O)C(C)C)c1`, with 1 µM [falling, full curve]; and `Cc1ccc(C(=O)c2ccc(N3CCN(C)CC3)c([N+](=O)[O-])c2)cc1`, with 29.1 µM [falling, single point]; and `CC(=O)N1c2ccc(S(=O)(=O)NCCC(=O)NCCc3ccc(Cl)cc3)cc2CC1C` (stereo not drawn), with 35.5 µM [falling, single point].
Still for that read-out and setting: the value for `COc1ccc(CCNC(=O)NC23CC4CC(CC(C4)C2)C3)cc1` was 7.31 µM [rising, partial curve, poor fit].
As to `c1ccc2oc(-c3csc(N4CCOCC4)n3)cc2c1`, the AC50 under setting [1] was 1.58 µM [rising, partial curve, poor fit].
As to `C=CCn1c(SCC(=O)Nc2sccc2C(N)=O)nc2sc(CC)cc2c1=O`, the AC50 under setting [1] is 14.6 µM [falling, partial curve] and the AC50 under setting [2] is 6.51 µM [rising, partial curve, poor fit].
Consider `CCCCCCCCCCSc1n[nH]c(N)n1`, for which the AC50 under setting [1] was 9.2 µM [rising, partial curve].
On the same count and under the same terms, the value for `O=C(NCCC1=CCCCC1)C1CCN(S(=O)(=O)c2cnc[nH]2)CC1` was 29.1 µM [falling, single point]; that for `CCOC(=O)c1c(NC(=O)c2c(Br)cnn2C)c(C#N)nn1-c1ccccc1` was 0.447 µM [rising, partial curve, poor fit].
The same measure, in the same setting: then `Cc1[nH]c(=O)c(C#N)c2c1CSC(C)(C)C2`, with 12.6 µM [rising, partial curve]; and `Cc1ccc(C(=O)CSc2nnc(-c3ccncc3)n2C)cc1`, with 35.5 µM [falling, partial curve, poor fit].
Still for that read-out and setting: the value for `COC(=O)Cc1[nH]n(-c2nc3ccccc3s2)c(=O)c1C(C)=Nc1ccc(Cl)cc1` was 7.08 µM [falling, partial curve, poor fit].
On to `O=C(c1ccc2c(c1)N(Cc1cccc(Cl)c1)C(=O)c1ccccc1S2(=O)=O)N1CCCCCC1`, for which, under setting [1], the half-maximal activity concentration (AC50) is 35.5 µM [falling, single point].
Turning to `O=C(NCCc1ccccc1)/C(=C\c1ccccc1)NC(=O)c1ccco1`, the AC50 under setting [1] was 17.8 µM [rising, partial curve, poor fit].
In the case of `O=C(O)c1ccc(-c2noc(-c3cccc(Cl)c3)n2)cc1`, the AC50 under setting [1] is 0.0411 µM [falling, full curve].
With `CC(=O)N=c1sc2nc3ccccc3nc2n1N(C(C)=O)C(C)=O`, under setting [1], the concentration at half-maximal activity (AC50) was 18.4 µM [falling, partial curve, poor fit].
Same read-out and setting: then `C=C1CCN([C@H](C(=O)OCc2cccc(C)c2)C(C)C)S(=O)(=O)c2ccccc21`, with 35.5 µM [falling, partial curve, poor fit]; and `CC(=O)N(CCP(=O)(c1ccccc1)c1ccccc1)Cc1ccco1`, with 3.98 µM [rising, partial curve, poor fit].
With `CCCC1=Nc2cc(C(=O)NCCCOC(C)C)ccc2Sc2ccccc21`, the AC50 reads like this: under setting [1], 14.6 µM [rising, partial curve, poor fit]; under setting [2], 16.4 µM [falling, partial curve].
Turning to `O=c1[nH]cc(S(=O)(=O)Nc2ccc3c(c2)OCO3)c(=O)[nH]1`, the AC50 under setting [1] was 32.6 µM [falling, partial curve, poor fit].
On the same count and under the same terms, the value for `Cc1nc2c(cc1C#N)C(=O)c1ccccc1-2` was 9.2 µM [falling, partial curve, poor fit]; that for `CC(C)=NNc1nc(-c2ccccc2)cs1` was 7.31 µM [falling, partial curve]; that for `CC(C)OC(=O)CCCCCN1C(=O)CSC1=S` was 20.6 µM [falling, single point].
With `O=C(O)c1ccc(-c2nc(-c3ccccc3)cs2)cc1`, the AC50 under setting [1] was 5.62 µM [falling, partial curve, poor fit].
With `N#CCC(=O)Nc1ccc(C(=O)NNC(=S)NC2CCCCC2)cc1`, the AC50 under setting [1] was 6.51 µM [rising, single point].
The same measure, in the same setting: the value for `CCOC(=O)c1c(NC(=O)CSC(=S)N(C)C)sc(C)c1C` was 20.6 µM [falling, single point]; that for `CCOC(=O)c1cc(CC)sc1NC(=O)CC1SC(N)=NC1=O` (stereo not drawn) was 2 µM [falling, partial curve, poor fit]; that for `CCN(CC)S(=O)(=O)c1cc(NC(=O)C(=O)c2c(-c3ccccc3)cc3ccccn23)ccc1C` was 6.51 µM [rising, single point].
Same read-out and setting: then `CNC(=O)/C(C#N)=C/c1ccc(-c2ccc(Cl)cc2)o1`, with 0.708 µM [rising, full curve, poor fit].
On the same count and under the same terms, the value for `CC1CCCCC1NC(=O)/C(C#N)=C/c1ccc2c(c1)OCCO2` (stereo not drawn) was 23.1 µM [falling, partial curve, poor fit]; that for `Cc1ccc(Nc2nc(/N=C/N(C)C)n[nH]2)cc1C` was 35.5 µM [falling, single point].
On to `Cc1c(C)n(C(=O)CSc2ncn[nH]2)c2ccccc12`, for which the AC50 under setting [1] is 7.31 µM [rising, partial curve, poor fit].
As for `O=C(Nc1ccc(Cl)cc1Cl)c1ccc2c(c1)OCCO2`, the AC50 under setting [1] is 16.4 µM [falling, single point].
For the compound `Cc1cccc(NC(=S)NNC(=O)c2nn(C)cc2Cl)c1`, the concentration at half-maximal activity (AC50) under setting [1] was 35.5 µM [falling, single point].
On the same count and under the same terms, the value for `Cc1cc(=O)n2[nH]c(-c3ccccc3Cl)cc2n1` was 20 µM [rising, single point]; that for `CCOC(=O)Nc1ccc2c(c1)N(C(=O)CCN1CCOCC1)c1ccccc1S2=O` (stereo not drawn) was 7.08 µM [falling, full curve].
With `O=C(/C=C/c1ccccc1)Nc1ncn[nH]1`, the AC50 under setting [1] was 7.08 µM [falling, partial curve].
In the case of `Cc1nc2ccc(NC(=O)COc3cccc(F)c3)cc2s1`, under setting [1], the concentration at half-maximal activity (AC50) is 3.16 µM [rising, partial curve, poor fit].
Consider `CC(=O)Nc1ccc(SCC(=O)O)cc1`, for which the AC50 under setting [1] is 39.8 µM [rising, partial curve, poor fit].
